{"source": "PubChem BioAssay AID504793 | Drosophila RNAi Screening Center – 2011", "aim": "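Whole-genome screen for parts of the DNA damage checkpoint at G2/M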 (primary screen)", "system": "Drosophila S2R+ cells", "reagent": "long dsRNA against Drosophila genes, about 0.25 µg dsRNA per well", "time to read-out": "4 days of dsRNA, then 4 hours of drug before read-out", "challenge": "doxorubicin 0.5 µM for 4 hours to cause double-strand breaks, in cells also given a low, harmless dose of dsRNA against nbs to sensitise the assay", "read-out": "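Mitotic index as the number of phospho-histone H3-positive cells in each well following doxorubicin, given as raw counts without normalisation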", "scale": "mitotic cells: higher = more cells in mitosis, weaker G2 arrest", "active means": "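Genes are called active only when high mitotic counts were reproduced with independent dsRNAs and mitosis was checked for delay without damage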", "calls": "active = confirmed in follow-up tests; inactive = not confirmed", "note": "The screen tested about 23,000 reagents; shown is an unselected part of those with a known target gene and a result. Over the whole deposit, 62 (0.27%) got an active call. 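Calls come from follow-up tests whose scores are not deposited, so confirmed genes may have low counts here; counts are not normalised per plate.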 Raw values vary from plate to plate and are shown uncorrected. The numbers tell different reagents against one gene apart. A plus sign joins genes that one reagent is predicted to hit. No sequences are given here."}
{"predicted target": "CG16894", "reagent": 1, "mitotic cells, replicate 1": 15, "outcome": "inactive"}
{"predicted target": "CG16894", "reagent": 2, "mitotic cells, replicate 1": 8, "outcome": "inactive"}
{"predicted target": "hoe1 (hoepel1)", "reagent": 1, "mitotic cells, replicate 1": 7, "outcome": "inactive"}
{"predicted target": "hoe1 (hoepel1)", "reagent": 2, "mitotic cells, replicate 1": 8, "outcome": "inactive"}
{"predicted target": "hoe1 (hoepel1)", "reagent": 3, "mitotic cells, replicate 1": 8, "outcome": "inactive"}
{"predicted target": "CG31810", "reagent": 1, "mitotic cells, replicate 1": 9, "outcome": "inactive"}
{"predicted target": "alpha-PheRS (Phenylalanyl-tRNA synthetase, alpha-subunit)", "reagent": 1, "mitotic cells, replicate 1": 6, "outcome": "inactive"}
{"predicted target": "alpha-PheRS (Phenylalanyl-tRNA synthetase, alpha-subunit)", "reagent": 2, "mitotic cells, replicate 1": 5, "outcome": "inactive"}
{"predicted target": "CG11696", "reagent": 1, "mitotic cells, replicate 1": 6, "outcome": "inactive"}
{"predicted target": "Gr59e (Gustatory receptor 59e)", "reagent": 1, "mitotic cells, replicate 1": 4, "outcome": "inactive"}
{"predicted target": "CG7997", "reagent": 1, "mitotic cells, replicate 1": 5, "outcome": "inactive"}
{"predicted target": "CG7997", "reagent": 2, "mitotic cells, replicate 1": 4, "outcome": "inactive"}
{"predicted target": "JYalpha (retired record) + JYalpha", "reagent": 1, "mitotic cells, replicate 1": 7, "outcome": "inactive"}
{"predicted target": "CG15080", "reagent": 1, "mitotic cells, replicate 1": 13, "outcome": "inactive"}
{"predicted target": "CG15080", "reagent": 2, "mitotic cells, replicate 1": 3, "outcome": "inactive"}
{"predicted target": "Hsp60D (Heat shock protein 60D)", "reagent": 1, "mitotic cells, replicate 1": 8, "outcome": "inactive"}
{"predicted target": "Hsp60D (Heat shock protein 60D)", "reagent": 2, "mitotic cells, replicate 1": 8, "outcome": "inactive"}
{"predicted target": "CG31093", "reagent": 1, "mitotic cells, replicate 1": 8, "outcome": "inactive"}
{"predicted target": "Ir7e (Ionotropic receptor 7e)", "reagent": 1, "mitotic cells, replicate 1": 8, "outcome": "inactive"}
{"predicted target": "CG3708", "reagent": 1, "mitotic cells, replicate 1": 19, "outcome": "inactive"}
{"predicted target": "tup (tailup)", "reagent": 1, "mitotic cells, replicate 1": 8, "outcome": "inactive"}
{"predicted target": "tup (tailup)", "reagent": 2, "mitotic cells, replicate 1": 9, "outcome": "inactive"}
{"predicted target": "Atg3 (Autophagy-related 3)", "reagent": 1, "mitotic cells, replicate 1": 9, "outcome": "inactive"}
{"predicted target": "Atg3 (Autophagy-related 3)", "reagent": 2, "mitotic cells, replicate 1": 4, "outcome": "inactive"}
{"predicted target": "Atg3 (Autophagy-related 3)", "reagent": 3, "mitotic cells, replicate 1": 3, "outcome": "inactive"}
{"predicted target": "Gdi (GDP dissociation inhibitor)", "reagent": 1, "mitotic cells, replicate 1": 6, "outcome": "inactive"}
{"predicted target": "Gdi (GDP dissociation inhibitor)", "reagent": 2, "mitotic cells, replicate 1": 9, "outcome": "inactive"}
{"predicted target": "CAHbeta (Carbonic anhydrase beta)", "reagent": 1, "mitotic cells, replicate 1": 8, "outcome": "inactive"}
{"predicted target": "mRpL15 (mitochondrial ribosomal protein L15)", "reagent": 1, "mitotic cells, replicate 1": 5, "outcome": "inactive"}
{"predicted target": "mRpL15 (mitochondrial ribosomal protein L15)", "reagent": 2, "mitotic cells, replicate 1": 3, "outcome": "inactive"}
{"predicted target": "Nup133 (Nucleoporin 133kD)", "reagent": 1, "mitotic cells, replicate 1": 11, "outcome": "inactive"}
{"predicted target": "CG30283", "reagent": 1, "mitotic cells, replicate 1": 9, "outcome": "inactive"}
{"predicted target": "CG30283", "reagent": 2, "mitotic cells, replicate 1": 12, "outcome": "inactive"}
{"predicted target": "CG14013", "reagent": 1, "mitotic cells, replicate 1": 1, "outcome": "inactive"}

A run of entries from the list above, as a working copy:
{"predicted target": "tup (tailup)", "reagent": 2, "mitotic cells, replicate 1": 9, "outcome": "inactive"}
{"predicted target": "Atg3 (Autophagy-related 3)", "reagent": 1, "mitotic cells, replicate 1": 9, "outcome": "inactive"}
{"predicted target": "Atg3 (Autophagy-related 3)", "reagent": 2, "mitotic cells, replicate 1": 4, "outcome": "inactive"}
{"predicted target": "Atg3 (Autophagy-related 3)", "reagent": 3, "mitotic cells, replicate 1": 3, "outcome": "inactive"}
{"predicted target": "Gdi (GDP dissociation inhibitor)", "reagent": 1, "mitotic cells, replicate 1": 6, "outcome": "inactive"}
